According to the supplement of paper PMC10849652:
The other results are listed elsewhere or left out.

Chains of the proteins cited; added tags and fusions are not shown. Lines headed by an entry give the natural chain unless they say otherwise; changes in a name come on top.
UniProt B7ZAQ6: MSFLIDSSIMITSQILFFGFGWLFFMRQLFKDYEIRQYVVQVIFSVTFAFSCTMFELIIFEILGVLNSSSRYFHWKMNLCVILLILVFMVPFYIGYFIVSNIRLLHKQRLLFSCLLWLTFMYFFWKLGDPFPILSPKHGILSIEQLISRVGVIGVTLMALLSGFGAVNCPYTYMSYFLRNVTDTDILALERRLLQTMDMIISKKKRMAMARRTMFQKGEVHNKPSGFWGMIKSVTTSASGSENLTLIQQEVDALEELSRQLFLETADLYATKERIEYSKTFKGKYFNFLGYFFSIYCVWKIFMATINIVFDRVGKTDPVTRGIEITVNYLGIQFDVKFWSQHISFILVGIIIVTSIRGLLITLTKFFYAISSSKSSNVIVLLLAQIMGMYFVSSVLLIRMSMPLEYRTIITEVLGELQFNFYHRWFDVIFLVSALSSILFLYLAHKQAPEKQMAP
UniProt Q96IJ6: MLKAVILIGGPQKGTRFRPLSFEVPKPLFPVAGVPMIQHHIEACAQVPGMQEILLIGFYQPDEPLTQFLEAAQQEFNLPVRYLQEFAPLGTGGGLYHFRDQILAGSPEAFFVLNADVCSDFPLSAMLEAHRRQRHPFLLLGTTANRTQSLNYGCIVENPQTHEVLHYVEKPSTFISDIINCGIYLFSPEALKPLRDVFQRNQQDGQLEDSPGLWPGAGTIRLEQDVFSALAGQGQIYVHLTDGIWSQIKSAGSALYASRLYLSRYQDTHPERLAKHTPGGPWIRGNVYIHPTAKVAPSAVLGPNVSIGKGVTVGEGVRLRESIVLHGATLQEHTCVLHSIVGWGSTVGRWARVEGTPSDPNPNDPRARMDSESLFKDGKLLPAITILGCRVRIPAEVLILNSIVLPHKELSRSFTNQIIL
UniProt P25098: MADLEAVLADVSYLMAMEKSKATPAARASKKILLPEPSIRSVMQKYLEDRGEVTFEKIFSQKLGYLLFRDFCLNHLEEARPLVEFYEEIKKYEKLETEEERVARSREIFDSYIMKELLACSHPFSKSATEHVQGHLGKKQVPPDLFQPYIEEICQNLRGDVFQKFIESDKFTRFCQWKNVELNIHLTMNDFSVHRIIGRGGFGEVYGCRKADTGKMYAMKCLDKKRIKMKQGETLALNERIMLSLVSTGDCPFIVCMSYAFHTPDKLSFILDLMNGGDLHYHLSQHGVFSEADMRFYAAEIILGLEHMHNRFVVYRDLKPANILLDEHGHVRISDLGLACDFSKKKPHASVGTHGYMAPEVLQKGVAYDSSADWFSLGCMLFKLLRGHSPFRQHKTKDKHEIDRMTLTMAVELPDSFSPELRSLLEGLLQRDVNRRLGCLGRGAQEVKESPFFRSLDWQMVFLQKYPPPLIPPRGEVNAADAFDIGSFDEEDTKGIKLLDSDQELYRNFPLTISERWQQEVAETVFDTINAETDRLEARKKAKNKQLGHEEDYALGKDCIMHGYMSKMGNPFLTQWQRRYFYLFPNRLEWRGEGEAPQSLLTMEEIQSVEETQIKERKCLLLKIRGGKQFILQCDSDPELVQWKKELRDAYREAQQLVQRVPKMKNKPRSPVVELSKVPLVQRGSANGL
UniProt P49840: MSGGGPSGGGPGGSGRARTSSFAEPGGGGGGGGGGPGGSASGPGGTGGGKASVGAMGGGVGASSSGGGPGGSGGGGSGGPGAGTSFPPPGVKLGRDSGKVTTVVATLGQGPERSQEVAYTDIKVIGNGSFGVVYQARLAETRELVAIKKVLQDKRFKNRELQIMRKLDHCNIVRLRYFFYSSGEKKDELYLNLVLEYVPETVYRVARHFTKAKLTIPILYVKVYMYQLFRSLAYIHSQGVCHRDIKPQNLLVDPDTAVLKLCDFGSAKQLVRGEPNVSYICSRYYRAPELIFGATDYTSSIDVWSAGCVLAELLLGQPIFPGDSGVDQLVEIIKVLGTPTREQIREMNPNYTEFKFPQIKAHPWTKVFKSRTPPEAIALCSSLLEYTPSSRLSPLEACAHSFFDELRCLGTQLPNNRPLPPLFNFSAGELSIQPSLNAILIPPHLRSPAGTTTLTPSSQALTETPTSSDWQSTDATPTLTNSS
UniProt P08754, whole entry, looked up: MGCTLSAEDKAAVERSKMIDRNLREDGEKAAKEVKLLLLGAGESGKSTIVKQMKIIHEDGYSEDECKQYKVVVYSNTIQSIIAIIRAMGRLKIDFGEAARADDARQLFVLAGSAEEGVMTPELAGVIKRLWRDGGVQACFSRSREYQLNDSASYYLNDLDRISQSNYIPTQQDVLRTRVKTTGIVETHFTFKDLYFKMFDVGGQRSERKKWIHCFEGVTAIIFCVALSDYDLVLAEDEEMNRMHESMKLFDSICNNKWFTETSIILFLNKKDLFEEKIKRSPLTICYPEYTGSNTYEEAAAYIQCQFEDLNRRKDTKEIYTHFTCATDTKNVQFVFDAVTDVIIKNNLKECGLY
UniProt Q9Y223: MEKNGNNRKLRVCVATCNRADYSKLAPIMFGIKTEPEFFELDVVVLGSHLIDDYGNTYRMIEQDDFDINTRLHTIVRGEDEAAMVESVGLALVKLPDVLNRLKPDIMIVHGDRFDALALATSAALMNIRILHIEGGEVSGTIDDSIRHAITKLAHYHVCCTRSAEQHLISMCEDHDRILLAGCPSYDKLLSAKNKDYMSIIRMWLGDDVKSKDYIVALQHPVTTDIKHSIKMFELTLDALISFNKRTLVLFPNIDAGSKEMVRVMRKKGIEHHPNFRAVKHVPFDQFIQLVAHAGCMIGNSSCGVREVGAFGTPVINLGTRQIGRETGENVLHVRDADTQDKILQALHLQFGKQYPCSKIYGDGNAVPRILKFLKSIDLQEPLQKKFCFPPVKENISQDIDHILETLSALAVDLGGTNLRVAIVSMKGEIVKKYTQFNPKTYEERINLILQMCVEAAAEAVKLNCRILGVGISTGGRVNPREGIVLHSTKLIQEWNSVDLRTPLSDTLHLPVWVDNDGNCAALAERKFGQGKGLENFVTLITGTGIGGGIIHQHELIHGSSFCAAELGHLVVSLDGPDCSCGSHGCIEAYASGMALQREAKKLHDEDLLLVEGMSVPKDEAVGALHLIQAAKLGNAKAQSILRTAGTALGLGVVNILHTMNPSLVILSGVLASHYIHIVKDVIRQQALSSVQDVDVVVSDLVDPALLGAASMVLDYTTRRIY
UniProt Q5VW38: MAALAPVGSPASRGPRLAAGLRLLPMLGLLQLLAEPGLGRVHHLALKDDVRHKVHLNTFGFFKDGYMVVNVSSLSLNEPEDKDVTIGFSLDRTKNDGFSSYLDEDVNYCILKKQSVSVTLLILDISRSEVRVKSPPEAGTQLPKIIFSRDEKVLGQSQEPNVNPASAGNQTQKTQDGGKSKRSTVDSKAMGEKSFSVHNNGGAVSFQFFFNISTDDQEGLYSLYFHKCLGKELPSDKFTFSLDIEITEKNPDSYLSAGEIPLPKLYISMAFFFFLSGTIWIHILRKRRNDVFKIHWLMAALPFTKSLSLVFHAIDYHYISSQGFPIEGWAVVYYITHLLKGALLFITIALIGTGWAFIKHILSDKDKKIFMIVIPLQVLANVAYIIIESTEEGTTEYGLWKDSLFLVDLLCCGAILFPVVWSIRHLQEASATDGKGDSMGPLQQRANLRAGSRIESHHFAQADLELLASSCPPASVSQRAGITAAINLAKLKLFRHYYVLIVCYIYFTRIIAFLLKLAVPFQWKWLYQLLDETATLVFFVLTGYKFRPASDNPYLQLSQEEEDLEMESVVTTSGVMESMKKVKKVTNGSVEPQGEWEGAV
UniProt P50148, whole entry, looked up: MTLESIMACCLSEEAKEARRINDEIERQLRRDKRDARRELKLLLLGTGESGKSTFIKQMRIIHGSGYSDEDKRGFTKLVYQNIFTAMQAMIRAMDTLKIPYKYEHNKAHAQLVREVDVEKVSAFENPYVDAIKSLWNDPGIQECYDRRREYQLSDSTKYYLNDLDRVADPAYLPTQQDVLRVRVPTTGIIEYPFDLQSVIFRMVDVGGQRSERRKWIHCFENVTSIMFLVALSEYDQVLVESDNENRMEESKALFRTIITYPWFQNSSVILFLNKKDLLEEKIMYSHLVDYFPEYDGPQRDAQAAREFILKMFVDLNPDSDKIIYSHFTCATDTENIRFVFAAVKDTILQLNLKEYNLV
UniProt Q9HC38: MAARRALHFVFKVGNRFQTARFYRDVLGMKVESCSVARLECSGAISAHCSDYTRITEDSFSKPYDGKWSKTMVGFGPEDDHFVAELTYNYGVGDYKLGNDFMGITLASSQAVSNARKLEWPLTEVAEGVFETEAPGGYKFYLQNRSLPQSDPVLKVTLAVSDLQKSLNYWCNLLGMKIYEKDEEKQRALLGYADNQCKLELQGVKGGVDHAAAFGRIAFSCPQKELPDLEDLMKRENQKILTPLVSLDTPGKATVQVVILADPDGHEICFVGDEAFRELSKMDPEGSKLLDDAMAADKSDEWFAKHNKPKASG
UniProt P60983, whole entry, looked up: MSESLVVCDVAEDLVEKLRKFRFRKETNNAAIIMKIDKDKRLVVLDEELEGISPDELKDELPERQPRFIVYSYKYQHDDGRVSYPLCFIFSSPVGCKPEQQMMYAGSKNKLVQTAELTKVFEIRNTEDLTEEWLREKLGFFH
UniProt P49448: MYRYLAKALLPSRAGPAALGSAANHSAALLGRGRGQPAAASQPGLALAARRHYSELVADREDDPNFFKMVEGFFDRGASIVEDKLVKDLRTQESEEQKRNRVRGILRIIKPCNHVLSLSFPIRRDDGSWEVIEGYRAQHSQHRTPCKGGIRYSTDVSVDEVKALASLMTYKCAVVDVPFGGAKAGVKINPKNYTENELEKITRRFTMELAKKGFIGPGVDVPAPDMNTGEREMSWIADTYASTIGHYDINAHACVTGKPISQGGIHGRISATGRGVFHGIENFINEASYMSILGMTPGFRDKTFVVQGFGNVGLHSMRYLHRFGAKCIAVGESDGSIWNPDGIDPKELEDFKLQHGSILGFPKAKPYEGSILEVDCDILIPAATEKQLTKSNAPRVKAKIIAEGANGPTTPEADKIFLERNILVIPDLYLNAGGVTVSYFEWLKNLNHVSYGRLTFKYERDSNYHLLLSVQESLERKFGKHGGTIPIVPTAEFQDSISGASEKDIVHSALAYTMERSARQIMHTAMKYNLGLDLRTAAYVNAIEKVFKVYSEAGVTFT
UniProt P43304: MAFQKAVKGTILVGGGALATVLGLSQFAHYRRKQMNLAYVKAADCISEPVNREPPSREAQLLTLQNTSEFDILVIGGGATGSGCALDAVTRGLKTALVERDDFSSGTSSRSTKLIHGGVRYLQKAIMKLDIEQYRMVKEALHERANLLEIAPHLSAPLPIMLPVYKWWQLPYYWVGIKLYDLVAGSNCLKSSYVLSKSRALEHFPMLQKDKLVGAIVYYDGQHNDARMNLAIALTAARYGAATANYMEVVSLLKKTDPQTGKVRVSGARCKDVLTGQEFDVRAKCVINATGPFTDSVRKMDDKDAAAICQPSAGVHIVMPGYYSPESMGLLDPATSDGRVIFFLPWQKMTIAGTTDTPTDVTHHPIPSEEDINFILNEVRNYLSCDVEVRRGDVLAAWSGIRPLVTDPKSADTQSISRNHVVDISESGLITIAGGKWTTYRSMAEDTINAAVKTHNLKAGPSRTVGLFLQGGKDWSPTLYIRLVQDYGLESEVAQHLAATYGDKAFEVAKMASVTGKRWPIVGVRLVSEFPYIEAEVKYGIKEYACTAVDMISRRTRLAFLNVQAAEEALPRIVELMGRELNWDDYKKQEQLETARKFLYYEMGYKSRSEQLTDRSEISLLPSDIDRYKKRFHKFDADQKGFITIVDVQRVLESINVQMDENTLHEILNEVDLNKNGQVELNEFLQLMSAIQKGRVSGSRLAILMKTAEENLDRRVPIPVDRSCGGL
UniProt P29992, whole entry, looked up: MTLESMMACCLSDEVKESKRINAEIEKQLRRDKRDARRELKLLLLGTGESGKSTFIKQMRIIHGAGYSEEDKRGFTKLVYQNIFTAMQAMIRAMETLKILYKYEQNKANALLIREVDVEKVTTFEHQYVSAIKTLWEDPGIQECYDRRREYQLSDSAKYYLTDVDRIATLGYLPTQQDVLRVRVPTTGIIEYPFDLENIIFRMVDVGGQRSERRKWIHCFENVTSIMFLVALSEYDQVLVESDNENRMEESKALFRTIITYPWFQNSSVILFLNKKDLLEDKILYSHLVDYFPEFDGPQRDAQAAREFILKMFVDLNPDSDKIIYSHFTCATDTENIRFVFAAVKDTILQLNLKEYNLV
UniProt P04899, whole entry, looked up: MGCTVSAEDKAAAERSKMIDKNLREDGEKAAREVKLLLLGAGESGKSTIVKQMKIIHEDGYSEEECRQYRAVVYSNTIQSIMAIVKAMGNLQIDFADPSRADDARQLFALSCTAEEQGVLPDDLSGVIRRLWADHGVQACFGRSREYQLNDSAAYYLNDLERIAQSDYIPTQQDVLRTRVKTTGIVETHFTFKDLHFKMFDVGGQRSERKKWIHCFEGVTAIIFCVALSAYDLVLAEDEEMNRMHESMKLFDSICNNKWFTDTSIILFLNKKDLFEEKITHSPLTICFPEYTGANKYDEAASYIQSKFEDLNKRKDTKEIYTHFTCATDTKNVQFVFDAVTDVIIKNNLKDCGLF

Tests used:
Test in all cases: log2 fold change, soluble protein after heating vs DMSO (PISA); higher = thermal stabilisation; K562 cells, 10 uM, 30 min; active = over 0.2 and 3.5 SD of the protein, either way, in both replicates (recomputed)
[1] = compound: COC1=CC=C(C=C1)CN2C=CC3=C2C=C(C=C3)C(=O)NO
Procedure, shortened: (§1)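 Soluble protein was defined as the supernatant after 21,000xg for 90 min. It came from K562 cells at 2×10^6 cells/mL given 10 μM compound for 30 min, heated in aliquots for 3 min across 48°C-58°C, pooled, and extracted in PBS with 0.5% NP-40 at 4°C, and was quantified by TMTpro 16plex LC-MS/MS with equalised channel sums. Thermal stability against control samples, from duplicates, is reported as log2 fold change.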

[2] = compound: CON(C)C(=O)N1N=C(c2cc(F)ccc2F)S[C@@]1(CCCN)c1ccccc1 [filanesib]
Procedure, shortened: as §1

[3] = compound: CO[C@H]1C[C@@H]2CC[C@@H](C)[C@@](O)(O2)C(=O)C(=O)N2CCCC[C@H]2C(=O)O[C@H]([C@H](C)C[C@@H]2CC[C@H](n3cnnn3)[C@H](OC)C2)CC(=O)[C@H](C)/C=C(\C)[C@@H](O)[C@@H](OC)C(=O)[C@H](C)C[C@H](C)/C=C/C=C/C=C/1C [zotarolimus]
Procedure, shortened: as §1

[4] = compound: COc1cc(C(=O)O)ccc1NC(=O)[C@@H]1N[C@@H](CC(C)(C)C)[C@](C#N)(c2ccc(Cl)cc2F)[C@H]1c1cccc(Cl)c1F [idasanutlin]
Procedure, shortened: as §1

[5] = compound: COc1cc(Nc2ncc3c(n2)-c2ccc(Cl)cc2C(c2c(F)cccc2OC)=NC3)ccc1C(=O)O [alisertib]
Procedure, shortened: as §1

[6] = compound: COc1cc2nc(-c3cc(F)ccc3O)nc(N[C@@H]3CNC[C@H]3C(C)(C)O)c2cc1OC
Procedure, shortened: as §1

[7] = compound: COc1cc2ncnc(Nc3ccc(F)c(Cl)c3)c2cc1OCCCN1CCOCC1 [gefitinib]
Procedure, shortened: as §1

[8] = compound: COc1cccc2cc(-c3nc([C@H]4CC[C@H](C(=O)O)CC4)n4ncnc(N)c34)[nH]c12
Procedure, shortened: as §1

[9] = compound: CS(=O)(=O)CCNCc1ccc(-c2ccc3ncnc(Nc4ccc(OCc5cccc(F)c5)c(Cl)c4)c3c2)o1 [lapatinib]
Procedure, shortened: as §1

[10] = compound: CS(=O)(=O)N1CCN(Cc2cc3nc(-c4cccc5[nH]ncc45)nc(N4CCOCC4)c3s2)CC1 [pictilisib]
Procedure, shortened: as §1

Measured: log2 fold change

GPR89A (UniProt B7ZAQ6)
inactive: [1] 0.086 | [2] -0.054 | [3] -0.037 | [4] -0.107 | [5] 0.014 | [6] -0.03 | [7] 0.015 | [8] 0.076 | [9] 0.006 | [10] 0.078

GMPPA (UniProt Q96IJ6)
inactive: [1] -0.007 | [2] -0.059 | [3] 0.013 | [4] -0.016 | [5] 0.002 | [6] 0.022 | [7] 0.005 | [8] 0.067 | [9] 0.013 | [10] 0.03

GRK2 (UniProt P25098)
inactive: [1] 0.019 | [2] -0.02 | [3] 0.01 | [4] -0.041 | [5] -0.086 | [6] 0.048 | [7] 0 | [8] 0.034 | [9] -0.011 | [10] 0.017

GRIPAP1 (UniProt Q4V328)
inactive: [1] 0.063 | [2] 0.016 | [3] 0.027 | [4] 0.035 | [5] -0.053 | [6] -0.066 | [7] 0.065 | [8] -0.047 | [9] 0.086 | [10] 0.019

GSK3A (UniProt P49840)
inactive: [1] -0.028 | [2] -0.087 | [3] -0.029 | [4] -0.107 | [5] 0.051 | [6] 0.088 | [7] -0.008 | [8] 0.045 | [9] -0.016 | [10] 0.188

GNAI3 (UniProt P08754)
inactive: [1] -0.041 | [2] -0.002 | [3] -0.081 | [4] -0.004 | [5] -0.124 | [6] 0.066 | [7] 0.118 | [8] -0.013 | [9] 0.009 | [10] 0.059

GNE isoform 2 (UniProt Q9Y223)
inactive: [1] -0.015 | [2] -0.135 | [3] -0.046 | [4] -0.11 | [5] -0.019 | [6] -0.023 | [7] -0.031 | [8] 0.079 | [9] -0.008 | [10] -0.015

GPR107 (UniProt Q5VW38)
inactive: [1] -0.006 | [2] -0.093 | [3] -0.019 | [4] -0.011 | [5] -0.006 | [6] 0.013 | [7] -0.005 | [8] 0.069 | [9] 0.002 | [10] -0.017

Fetched one by one from the list above (two):
GSK3A (UniProt P49840)
inactive: [1] -0.028 | [2] -0.087 | [3] -0.029 | [4] -0.107 | [5] 0.051 | [6] 0.088 | [7] -0.008 | [8] 0.045 | [9] -0.016 | [10] 0.188

GNAI3 (UniProt P08754)
inactive: [1] -0.041 | [2] -0.002 | [3] -0.081 | [4] -0.004 | [5] -0.124 | [6] 0.066 | [7] 0.118 | [8] -0.013 | [9] 0.009 | [10] 0.059

More records.

GNAQ (UniProt P50148)
inactive: [1] -0.077 | [2] 0.095 | [3] 0.006 | [4] -0.055 | [5] -0.073 | [6] 0.084 | [7] 0.091 | [8] 0.086 | [9] -0.025 | [10] 0.201

GLOD4 isoform 2 (UniProt Q9HC38)
inactive: [1] -0.002 | [2] -0.089 | [3] 0.038 | [4] -0.071 | [5] -0.006 | [6] 0.027 | [7] 0.023 | [8] 0.012 | [9] -0.002 | [10] 0.009

GMFB (UniProt P60983)
inactive: [1] -0.001 | [2] -0.038 | [3] 0.045 | [4] -0.043 | [5] -0.08 | [6] -0.011 | [7] 0 | [8] 0.067 | [9] -0.003 | [10] -0.032

GLUD2 (UniProt P49448)
inactive: [1] -0.041 | [2] -0.032 | [3] 0.123 | [4] -0.07 | [5] -0.06 | [6] -0.003 | [7] 0.061 | [8] 0.023 | [9] 0.191 | [10] 0.216

GPD2 (UniProt P43304)
inactive: [1] -0.026 | [2] 0.008 | [3] -0.03 | [4] -0.011 | [5] -0.095 | [6] -0.004 | [7] 0.004 | [8] 0.04 | [9] -0.024 | [10] 0.008

GNA11 (UniProt P29992)
inactive: [1] -0.044 | [2] 0.029 | [3] 0.007 | [4] -0.021 | [5] -0.044 | [6] 0.126 | [7] 0.063 | [8] -0.039 | [9] 0.013 | [10] 0.101

GNAI2 isoform 4 (UniProt P04899)
inactive: [1] -0.029 | [2] -0.05 | [3] -0.015 | [4] -0.049 | [5] -0.086 | [6] 0.154 | [7] 0.078 | [8] -0.023 | [9] -0.001 | [10] 0.073
